Source: patent publication US20230093155A1
These are yes or no findings as the source states them, for the method shown. Binding seen in cells or lysates may run through a third protein. Some binding calls cover weakened binding; strength is not graded here.

Protein sequences, listed by entry. Tags and fused reporters are not part of them. Lines headed by an entry give the natural chain unless they say otherwise; changes in a name come on top.
UniProt Q13261: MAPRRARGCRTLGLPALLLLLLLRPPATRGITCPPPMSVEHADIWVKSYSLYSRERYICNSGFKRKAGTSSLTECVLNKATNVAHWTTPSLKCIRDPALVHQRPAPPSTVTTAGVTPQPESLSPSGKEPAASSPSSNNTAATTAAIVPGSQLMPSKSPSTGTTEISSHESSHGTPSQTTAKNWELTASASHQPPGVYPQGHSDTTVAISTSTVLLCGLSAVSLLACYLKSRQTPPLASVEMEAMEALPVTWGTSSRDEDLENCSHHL

Target: Fc-fused IL-15 (S58D) of P-0315 after MMP-2 cleavage
Assay: co-purification on Protein A after MMP-2 digestion of P-0315, SDS-PAGE

IL-15RαSushi+ domain released from P-0315 by MMP-2 cleavage (from UniProt Q13261 31-107) (receptor)
binding: binds
